Reference: PMC6465247
No constants are given. Whether binding was seen depends on the method and setting. For some of these results: Binding seen in cells or lysates may run through a third protein. Some entries that bind do so weakly or less than the wild type. Where a sequence is shown, tags or fusion partners need not be part of it.

T1: HisGST-PDS5A^1-809 (Arabidopsis thaliana) (UniProt B6EUB3)
T1 sequence: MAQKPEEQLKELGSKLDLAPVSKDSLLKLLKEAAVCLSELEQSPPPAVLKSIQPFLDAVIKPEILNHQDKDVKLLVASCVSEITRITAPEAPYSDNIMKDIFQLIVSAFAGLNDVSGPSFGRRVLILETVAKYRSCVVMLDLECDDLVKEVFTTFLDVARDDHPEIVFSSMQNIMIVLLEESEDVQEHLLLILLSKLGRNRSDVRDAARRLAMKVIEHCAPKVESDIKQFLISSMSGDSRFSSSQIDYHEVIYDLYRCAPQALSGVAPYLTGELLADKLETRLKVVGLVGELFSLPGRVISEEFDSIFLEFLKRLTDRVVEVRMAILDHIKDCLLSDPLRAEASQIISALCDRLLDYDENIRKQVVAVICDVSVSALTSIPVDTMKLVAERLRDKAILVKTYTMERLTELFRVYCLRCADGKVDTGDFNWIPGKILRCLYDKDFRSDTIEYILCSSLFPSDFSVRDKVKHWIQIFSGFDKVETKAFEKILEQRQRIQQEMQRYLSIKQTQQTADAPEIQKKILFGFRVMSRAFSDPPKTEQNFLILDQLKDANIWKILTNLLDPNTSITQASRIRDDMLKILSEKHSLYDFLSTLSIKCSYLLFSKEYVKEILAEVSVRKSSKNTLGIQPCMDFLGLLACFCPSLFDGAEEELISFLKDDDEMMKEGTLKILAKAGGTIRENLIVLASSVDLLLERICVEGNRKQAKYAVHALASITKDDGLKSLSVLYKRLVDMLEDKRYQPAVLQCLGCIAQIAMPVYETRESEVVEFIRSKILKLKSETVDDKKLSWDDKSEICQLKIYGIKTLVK

T2: PDS5A^1-809, yeast two-hybrid fusion (Arabidopsis thaliana) (UniProt B6EUB3)
T2 sequence: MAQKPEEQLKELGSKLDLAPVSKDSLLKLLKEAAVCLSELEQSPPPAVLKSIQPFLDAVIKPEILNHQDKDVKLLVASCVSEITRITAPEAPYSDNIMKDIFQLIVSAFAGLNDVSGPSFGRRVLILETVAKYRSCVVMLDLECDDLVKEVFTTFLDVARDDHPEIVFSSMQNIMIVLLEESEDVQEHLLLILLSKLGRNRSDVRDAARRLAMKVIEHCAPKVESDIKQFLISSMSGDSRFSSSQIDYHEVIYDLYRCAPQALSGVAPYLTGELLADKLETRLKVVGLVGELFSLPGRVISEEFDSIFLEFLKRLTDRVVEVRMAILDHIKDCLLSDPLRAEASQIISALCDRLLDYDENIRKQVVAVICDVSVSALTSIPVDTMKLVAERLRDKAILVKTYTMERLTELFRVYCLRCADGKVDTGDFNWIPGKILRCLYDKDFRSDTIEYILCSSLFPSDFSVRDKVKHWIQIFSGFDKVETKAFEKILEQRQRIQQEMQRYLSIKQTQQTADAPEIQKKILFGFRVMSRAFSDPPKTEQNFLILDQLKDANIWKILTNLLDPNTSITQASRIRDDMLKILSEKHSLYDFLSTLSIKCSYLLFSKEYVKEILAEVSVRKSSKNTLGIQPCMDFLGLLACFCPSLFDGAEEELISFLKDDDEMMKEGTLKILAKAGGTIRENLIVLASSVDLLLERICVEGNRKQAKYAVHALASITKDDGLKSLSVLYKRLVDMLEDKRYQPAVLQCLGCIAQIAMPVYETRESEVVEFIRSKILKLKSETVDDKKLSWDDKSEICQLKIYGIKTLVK

B1: HisMBP-WAPL1 (protein, UniProt F4I7C7 1-930)
chain: MIIVKLTANRICCSLLQLRRSYEHFYIFVFLPEIPLFRFSHLKLFPKNLQIQRLVSAMMERTYGRRKPGIPRTLSDSLNDSVSQTEYLSSSSSPDIEPIDYSLLPFSSQESSSLWHSSSRSNFREDYPQNGGVVRRAKRVRNGAEAAAFTSTLLEAQEFGELMEHEDEVNFALDGLRKGHQLRIRRASLSSLLSICASQHQRRSLRAQGISQSIIDAILVLSLDDIPSNLAAATLFFALTADGQDEHFMESPKCIKFLIKLLKPVIVTSTEGKPRNIGFKLLSLLKDVDAARDPVKMDDPSSSDILSRVQELLVNCKEMRLNDSYITETTRPELSTKWVALLAMERACVSKISFDDTSGSVKKTGGNFKEKLRELGGLDAVLEVVMDCHAVMERWVEYDALSVQEKKDNLHKQSLMLLLKCLKIMENATFLSTDNQNHLLGFKKCLGSHDSRMSFTELTISVIKMLSGLHLRGGFSSPNTNNVNSHYSNGGNHDSVLEANRKVTNEVVTISSDTYSTVGSISTRNGSVSQRSQSIIHLDFSPTSMSGSQSSVSGNEPTTSKTRVGSTISGSFAGRLASLGSDIARTTLRTTQAGEPICKKFGEFAPPEESEDPFAFDLEDYKPSKWAVVSVNQKKSRAQKKKGCYKQSKDESLYQLFSSQEESSNHRLNSQEESSNRDCSTSLQPSHCTNDIDEECLCLLFDCLLTAVKVLMNLTNDNVVGCRQVGGCRGLESMAELIARHFPSFTRSQLFSEMEKTGSSHQKKDKYLTDQELDFLVAILGLLVNLVERDGVNRSRLASASVPITKPEELQESEQEMIPLLCSIFLTNQGSAETKEETTTFTLDDEEAVLEGEKEAEKMIVEAYSALLLAFLSTESRSIRNSIKDYLPKRNLAILVPVLERFVAFHMTLNMIPPETHKAVMGVIESCKSP
B2: HisMBP-SWI1^1-300 (domain or fragment, UniProt Q9FGN8 1-300)
chain: MSSTMFVKRNPIRETTAGKISSPSSPTLNVAVAHIRAGSYYEIDASILPQRSPENLKSIRVVMVSKITASDVSLRYPSMFSLRSHFDYSRMNRNKPMKKRSGGGLLPVFDESHVMASELAGDLLYRRIAPHELSMNRNSWGFWVSSSSRRNKFPRREVVSQPAYNTRLCRAASPEGKCSSELKSGGMIKWGRRLRVQYQSRHIDTRKNKEGEESSRVKDEVYKEEEMEKEEDDDDGNEIGGTKQEAKEITNGNRKRKLIESSTERLAQKAKVYDQKKETQIVVYKRKSERKFIDRWSVER
B3: SWI1^1-300, yeast two-hybrid fusion (domain or fragment, UniProt Q9FGN8 1-300)
chain: MSSTMFVKRNPIRETTAGKISSPSSPTLNVAVAHIRAGSYYEIDASILPQRSPENLKSIRVVMVSKITASDVSLRYPSMFSLRSHFDYSRMNRNKPMKKRSGGGLLPVFDESHVMASELAGDLLYRRIAPHELSMNRNSWGFWVSSSSRRNKFPRREVVSQPAYNTRLCRAASPEGKCSSELKSGGMIKWGRRLRVQYQSRHIDTRKNKEGEESSRVKDEVYKEEEMEKEEDDDDGNEIGGTKQEAKEITNGNRKRKLIESSTERLAQKAKVYDQKKETQIVVYKRKSERKFIDRWSVER
B4: WINGS APART-LIKE 1 (WAPL1), yeast two-hybrid fusion (protein, UniProt F4I7C7 1-930)
chain: MIIVKLTANRICCSLLQLRRSYEHFYIFVFLPEIPLFRFSHLKLFPKNLQIQRLVSAMMERTYGRRKPGIPRTLSDSLNDSVSQTEYLSSSSSPDIEPIDYSLLPFSSQESSSLWHSSSRSNFREDYPQNGGVVRRAKRVRNGAEAAAFTSTLLEAQEFGELMEHEDEVNFALDGLRKGHQLRIRRASLSSLLSICASQHQRRSLRAQGISQSIIDAILVLSLDDIPSNLAAATLFFALTADGQDEHFMESPKCIKFLIKLLKPVIVTSTEGKPRNIGFKLLSLLKDVDAARDPVKMDDPSSSDILSRVQELLVNCKEMRLNDSYITETTRPELSTKWVALLAMERACVSKISFDDTSGSVKKTGGNFKEKLRELGGLDAVLEVVMDCHAVMERWVEYDALSVQEKKDNLHKQSLMLLLKCLKIMENATFLSTDNQNHLLGFKKCLGSHDSRMSFTELTISVIKMLSGLHLRGGFSSPNTNNVNSHYSNGGNHDSVLEANRKVTNEVVTISSDTYSTVGSISTRNGSVSQRSQSIIHLDFSPTSMSGSQSSVSGNEPTTSKTRVGSTISGSFAGRLASLGSDIARTTLRTTQAGEPICKKFGEFAPPEESEDPFAFDLEDYKPSKWAVVSVNQKKSRAQKKKGCYKQSKDESLYQLFSSQEESSNHRLNSQEESSNRDCSTSLQPSHCTNDIDEECLCLLFDCLLTAVKVLMNLTNDNVVGCRQVGGCRGLESMAELIARHFPSFTRSQLFSEMEKTGSSHQKKDKYLTDQELDFLVAILGLLVNLVERDGVNRSRLASASVPITKPEELQESEQEMIPLLCSIFLTNQGSAETKEETTTFTLDDEEAVLEGEKEAEKMIVEAYSALLLAFLSTESRSIRNSIKDYLPKRNLAILVPVLERFVAFHMTLNMIPPETHKAVMGVIESCKSP
B5: SWI1^301-639, yeast two-hybrid fusion (domain or fragment, UniProt Q9FGN8 301-639)
chain: YKLAERNMLKVMKEKNAVFGNSILRPELRSEARKLIGDTGLLDHLLKHMAGKVAPGGQDRFMRKHNADGAMEYWLESSDLIHIRKEAGVKDPYWTPPPGWKLGDNPSQDPVCAGEIRDIREELASLKRELKKLASKKEEEELVIMTTPNSCVTSQNDNLMTPAKEIYADLLKKKYKIEDQLVIIGETLRKMEEDMGWLKKTVDENYPKKPDSTETPLLLEDSPPIQTLEGEVKVVNKGNQITESPQNREKGRKHDQQERSPLSLISNTGFRICRPVGMFAWPQLPALAAATDTNASSPSHRQAYPSPFPVKPLAAKRPLGLTFPFTIIPEEAPKNLFNV

Tests used:
[1] = molecular target: T1, HisGST-PDS5A^1-809 (Arabidopsis thaliana); assay: pull-down; WAPL removal assay: 50 ng/ul HisGST-PDS5A^1-809-HisMBP-WAPL1 heterodimers on anti-GST agarose beads, incubated with 40, 80, 120 or 200 ng/ul HisMBP-SWI1^1-300; 25 mM Tris-HCl pH 7.5, 100 mM NaCl, 10 mM MgCl2, 2 mM DTT, 10% glycerol, 0.1% Triton X-100; 1 h at 4 °C; supernatant and beads immunoblotted; both purified
[2] = molecular target: T1, HisGST-PDS5A^1-809 (Arabidopsis thaliana); assay: pull-down; co-purification: HisGST-PDS5A^1-809 and HisMBP-WAPL1 co-expressed in E. coli BL21 (DE3)pLysS and purified together on GST agarose beads
[3] = molecular target: T1, HisGST-PDS5A^1-809 (Arabidopsis thaliana); assay: pull-down; HisGST-PDS5A^1-809 on GST agarose beads; 1 ug of each protein; 25 mM Tris-HCl pH 7.5, 100 mM NaCl, 10% glycerol; 1 h at 4 °C; washes with 200 mM NaCl and 0.1% Triton X-100; immunoblot with anti-GST and anti-MBP; both purified
[4] = molecular target: T2, PDS5A^1-809, yeast two-hybrid fusion (Arabidopsis thaliana); assay: two-hybrid; Matchmaker Gold system (Clontech), pGADT7-GW and pGBKT7-GW fusions co-transformed into yeast AH109; growth on SD/-Leu -Trp -His

Row | Binder | binding [1] | binding [2] | binding [3] | binding [4]
1 | B1 | binds | binds | – | –
2 | B2 | binds | – | binds | –
3 | B3 | – | – | – | binds
4 | B4 | – | – | – | binds
5 | B5 | – | – | – | no binding
